Reference: the supplement of paper PMC10849652
The list shows a part of the results. Residues, ends and D or L forms follow the SMILES beside them. *: point of attachment. Cbz = O=C(OCc1ccccc1)*

By UniProt entry, the sequences of proteins in these tests, tags left out. Where a name states a change or a piece, a line headed by the entry shows the natural chain unless it says otherwise.
UniProt Q8WZA0: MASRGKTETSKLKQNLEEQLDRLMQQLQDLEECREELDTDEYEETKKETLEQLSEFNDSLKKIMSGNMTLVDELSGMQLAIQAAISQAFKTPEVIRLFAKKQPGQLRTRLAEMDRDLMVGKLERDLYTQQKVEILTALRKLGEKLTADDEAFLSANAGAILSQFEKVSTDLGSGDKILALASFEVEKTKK
UniProt P56192: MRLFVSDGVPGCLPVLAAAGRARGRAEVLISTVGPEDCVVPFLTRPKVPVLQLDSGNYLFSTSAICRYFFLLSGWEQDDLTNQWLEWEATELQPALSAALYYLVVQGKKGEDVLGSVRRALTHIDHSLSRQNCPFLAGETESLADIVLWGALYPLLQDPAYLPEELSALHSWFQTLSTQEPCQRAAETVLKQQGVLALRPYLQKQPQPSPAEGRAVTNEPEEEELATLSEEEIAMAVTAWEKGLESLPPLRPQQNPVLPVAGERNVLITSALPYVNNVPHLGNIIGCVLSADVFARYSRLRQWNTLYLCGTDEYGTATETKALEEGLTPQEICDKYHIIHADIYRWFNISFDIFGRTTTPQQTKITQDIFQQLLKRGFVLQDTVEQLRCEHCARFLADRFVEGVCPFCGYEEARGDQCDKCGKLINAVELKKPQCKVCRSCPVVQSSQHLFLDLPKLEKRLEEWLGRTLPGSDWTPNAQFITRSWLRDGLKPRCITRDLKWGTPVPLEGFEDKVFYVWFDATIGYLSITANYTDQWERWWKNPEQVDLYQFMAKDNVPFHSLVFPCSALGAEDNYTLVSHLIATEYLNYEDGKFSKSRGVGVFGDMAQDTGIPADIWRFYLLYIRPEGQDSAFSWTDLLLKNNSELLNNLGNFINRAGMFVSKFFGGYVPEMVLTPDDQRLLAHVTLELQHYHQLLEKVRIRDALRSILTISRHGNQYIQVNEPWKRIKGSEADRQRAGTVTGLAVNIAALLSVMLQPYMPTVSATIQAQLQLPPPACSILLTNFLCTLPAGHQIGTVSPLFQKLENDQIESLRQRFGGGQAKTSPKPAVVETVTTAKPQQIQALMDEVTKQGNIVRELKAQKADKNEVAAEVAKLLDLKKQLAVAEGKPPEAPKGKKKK
UniProt O00754: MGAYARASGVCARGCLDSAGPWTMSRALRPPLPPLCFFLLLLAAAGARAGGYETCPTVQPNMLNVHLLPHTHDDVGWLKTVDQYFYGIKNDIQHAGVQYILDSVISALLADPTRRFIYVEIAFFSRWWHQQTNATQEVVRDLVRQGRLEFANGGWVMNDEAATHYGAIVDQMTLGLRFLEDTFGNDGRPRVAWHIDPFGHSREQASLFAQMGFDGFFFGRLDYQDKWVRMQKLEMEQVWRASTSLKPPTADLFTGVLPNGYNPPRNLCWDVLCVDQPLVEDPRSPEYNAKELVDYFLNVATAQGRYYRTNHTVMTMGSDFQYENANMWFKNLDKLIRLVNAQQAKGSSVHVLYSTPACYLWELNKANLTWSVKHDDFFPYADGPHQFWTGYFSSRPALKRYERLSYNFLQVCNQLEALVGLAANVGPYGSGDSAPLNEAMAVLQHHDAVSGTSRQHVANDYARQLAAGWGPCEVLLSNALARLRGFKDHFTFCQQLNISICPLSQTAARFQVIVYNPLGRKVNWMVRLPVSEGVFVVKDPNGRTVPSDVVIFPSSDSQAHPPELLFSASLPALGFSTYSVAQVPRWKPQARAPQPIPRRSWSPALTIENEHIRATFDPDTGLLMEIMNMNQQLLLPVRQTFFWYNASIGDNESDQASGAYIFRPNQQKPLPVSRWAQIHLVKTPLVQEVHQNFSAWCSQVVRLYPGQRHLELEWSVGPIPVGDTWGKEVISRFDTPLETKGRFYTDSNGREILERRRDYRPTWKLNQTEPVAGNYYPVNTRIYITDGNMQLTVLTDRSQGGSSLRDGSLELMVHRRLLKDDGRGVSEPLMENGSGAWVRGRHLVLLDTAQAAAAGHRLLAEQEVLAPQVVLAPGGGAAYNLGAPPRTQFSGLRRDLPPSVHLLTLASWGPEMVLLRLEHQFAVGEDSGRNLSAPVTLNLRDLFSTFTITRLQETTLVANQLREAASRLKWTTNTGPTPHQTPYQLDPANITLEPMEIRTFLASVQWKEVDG
UniProt O00462: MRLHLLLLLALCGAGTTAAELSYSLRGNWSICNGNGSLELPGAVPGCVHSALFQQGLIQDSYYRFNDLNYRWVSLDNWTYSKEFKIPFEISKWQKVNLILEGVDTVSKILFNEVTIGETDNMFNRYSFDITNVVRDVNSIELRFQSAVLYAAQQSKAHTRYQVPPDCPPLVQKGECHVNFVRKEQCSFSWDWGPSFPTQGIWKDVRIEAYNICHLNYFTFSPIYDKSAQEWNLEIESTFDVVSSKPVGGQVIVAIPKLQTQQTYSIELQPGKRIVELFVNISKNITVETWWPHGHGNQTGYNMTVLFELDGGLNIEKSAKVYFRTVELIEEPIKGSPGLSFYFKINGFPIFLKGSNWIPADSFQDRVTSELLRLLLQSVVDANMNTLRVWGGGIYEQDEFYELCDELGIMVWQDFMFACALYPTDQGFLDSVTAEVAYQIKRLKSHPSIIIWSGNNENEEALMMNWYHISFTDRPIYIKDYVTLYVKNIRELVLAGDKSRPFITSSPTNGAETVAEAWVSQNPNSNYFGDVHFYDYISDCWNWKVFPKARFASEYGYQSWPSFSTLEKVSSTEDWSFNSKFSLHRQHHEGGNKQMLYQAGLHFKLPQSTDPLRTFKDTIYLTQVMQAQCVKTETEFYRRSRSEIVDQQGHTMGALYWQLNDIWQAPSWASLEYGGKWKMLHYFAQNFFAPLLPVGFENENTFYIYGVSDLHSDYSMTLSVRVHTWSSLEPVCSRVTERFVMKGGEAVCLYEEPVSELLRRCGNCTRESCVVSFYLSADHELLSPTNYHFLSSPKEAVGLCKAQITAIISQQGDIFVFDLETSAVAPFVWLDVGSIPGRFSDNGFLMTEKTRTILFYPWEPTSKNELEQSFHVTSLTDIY
UniProt Q6UWE0: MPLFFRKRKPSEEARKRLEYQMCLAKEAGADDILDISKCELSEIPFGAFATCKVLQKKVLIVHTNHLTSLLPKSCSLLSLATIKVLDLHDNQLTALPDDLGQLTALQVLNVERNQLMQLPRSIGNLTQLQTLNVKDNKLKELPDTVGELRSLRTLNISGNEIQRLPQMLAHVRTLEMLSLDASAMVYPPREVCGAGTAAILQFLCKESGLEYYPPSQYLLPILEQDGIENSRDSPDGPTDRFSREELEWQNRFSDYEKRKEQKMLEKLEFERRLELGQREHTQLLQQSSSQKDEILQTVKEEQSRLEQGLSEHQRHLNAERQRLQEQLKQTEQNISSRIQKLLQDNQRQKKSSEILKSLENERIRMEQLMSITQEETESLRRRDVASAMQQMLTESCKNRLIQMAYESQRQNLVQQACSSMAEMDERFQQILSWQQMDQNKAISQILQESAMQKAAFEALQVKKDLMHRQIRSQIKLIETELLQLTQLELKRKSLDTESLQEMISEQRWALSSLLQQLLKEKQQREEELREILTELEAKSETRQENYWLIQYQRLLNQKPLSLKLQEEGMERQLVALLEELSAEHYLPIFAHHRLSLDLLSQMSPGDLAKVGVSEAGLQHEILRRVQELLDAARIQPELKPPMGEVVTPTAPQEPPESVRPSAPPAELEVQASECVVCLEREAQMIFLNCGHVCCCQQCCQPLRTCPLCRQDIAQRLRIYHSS
UniProt Q9UNF1: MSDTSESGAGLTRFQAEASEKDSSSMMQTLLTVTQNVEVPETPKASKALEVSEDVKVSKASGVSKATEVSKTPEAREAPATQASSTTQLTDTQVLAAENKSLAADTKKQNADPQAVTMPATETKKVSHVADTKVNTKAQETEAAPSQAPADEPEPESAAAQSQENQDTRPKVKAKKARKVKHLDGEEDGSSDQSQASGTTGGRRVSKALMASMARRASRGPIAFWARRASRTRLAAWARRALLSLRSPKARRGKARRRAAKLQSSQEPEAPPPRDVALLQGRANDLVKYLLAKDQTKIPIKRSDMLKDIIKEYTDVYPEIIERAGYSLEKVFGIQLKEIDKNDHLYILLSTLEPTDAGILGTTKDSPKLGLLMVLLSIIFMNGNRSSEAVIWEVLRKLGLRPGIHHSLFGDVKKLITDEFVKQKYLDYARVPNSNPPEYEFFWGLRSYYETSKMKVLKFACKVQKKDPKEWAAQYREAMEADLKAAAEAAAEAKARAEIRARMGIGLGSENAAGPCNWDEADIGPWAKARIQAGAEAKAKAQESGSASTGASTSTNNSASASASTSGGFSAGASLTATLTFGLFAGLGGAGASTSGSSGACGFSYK
UniProt Q66K74: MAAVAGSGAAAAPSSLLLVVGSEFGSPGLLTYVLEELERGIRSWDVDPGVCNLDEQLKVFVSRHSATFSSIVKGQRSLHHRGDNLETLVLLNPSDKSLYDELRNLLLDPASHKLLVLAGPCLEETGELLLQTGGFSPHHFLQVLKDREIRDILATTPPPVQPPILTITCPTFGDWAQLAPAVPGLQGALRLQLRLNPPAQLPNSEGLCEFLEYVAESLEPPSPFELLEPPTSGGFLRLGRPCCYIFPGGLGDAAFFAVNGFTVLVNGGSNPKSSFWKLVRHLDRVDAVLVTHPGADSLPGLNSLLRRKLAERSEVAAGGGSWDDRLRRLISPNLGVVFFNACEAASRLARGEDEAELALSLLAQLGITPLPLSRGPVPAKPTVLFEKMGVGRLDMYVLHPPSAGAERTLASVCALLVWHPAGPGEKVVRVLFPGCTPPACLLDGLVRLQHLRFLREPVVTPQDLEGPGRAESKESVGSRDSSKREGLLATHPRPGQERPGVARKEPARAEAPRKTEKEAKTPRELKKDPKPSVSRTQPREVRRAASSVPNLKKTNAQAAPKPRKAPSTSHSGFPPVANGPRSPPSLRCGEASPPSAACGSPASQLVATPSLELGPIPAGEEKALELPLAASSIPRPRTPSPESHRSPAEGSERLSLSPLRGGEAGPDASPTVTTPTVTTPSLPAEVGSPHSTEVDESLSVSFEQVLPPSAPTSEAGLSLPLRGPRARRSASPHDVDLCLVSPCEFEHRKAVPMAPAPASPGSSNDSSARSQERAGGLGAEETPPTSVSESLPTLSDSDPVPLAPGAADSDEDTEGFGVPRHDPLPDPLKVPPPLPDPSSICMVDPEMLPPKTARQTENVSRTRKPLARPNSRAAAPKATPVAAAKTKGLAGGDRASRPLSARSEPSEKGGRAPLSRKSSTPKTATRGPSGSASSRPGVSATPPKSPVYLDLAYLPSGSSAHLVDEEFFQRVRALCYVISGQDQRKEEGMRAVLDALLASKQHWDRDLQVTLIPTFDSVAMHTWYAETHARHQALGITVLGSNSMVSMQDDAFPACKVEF
UniProt O15116: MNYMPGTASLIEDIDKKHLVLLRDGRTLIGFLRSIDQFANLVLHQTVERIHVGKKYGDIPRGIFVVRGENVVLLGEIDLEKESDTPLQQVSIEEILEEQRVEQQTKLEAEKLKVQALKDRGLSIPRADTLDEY
UniProt O60476: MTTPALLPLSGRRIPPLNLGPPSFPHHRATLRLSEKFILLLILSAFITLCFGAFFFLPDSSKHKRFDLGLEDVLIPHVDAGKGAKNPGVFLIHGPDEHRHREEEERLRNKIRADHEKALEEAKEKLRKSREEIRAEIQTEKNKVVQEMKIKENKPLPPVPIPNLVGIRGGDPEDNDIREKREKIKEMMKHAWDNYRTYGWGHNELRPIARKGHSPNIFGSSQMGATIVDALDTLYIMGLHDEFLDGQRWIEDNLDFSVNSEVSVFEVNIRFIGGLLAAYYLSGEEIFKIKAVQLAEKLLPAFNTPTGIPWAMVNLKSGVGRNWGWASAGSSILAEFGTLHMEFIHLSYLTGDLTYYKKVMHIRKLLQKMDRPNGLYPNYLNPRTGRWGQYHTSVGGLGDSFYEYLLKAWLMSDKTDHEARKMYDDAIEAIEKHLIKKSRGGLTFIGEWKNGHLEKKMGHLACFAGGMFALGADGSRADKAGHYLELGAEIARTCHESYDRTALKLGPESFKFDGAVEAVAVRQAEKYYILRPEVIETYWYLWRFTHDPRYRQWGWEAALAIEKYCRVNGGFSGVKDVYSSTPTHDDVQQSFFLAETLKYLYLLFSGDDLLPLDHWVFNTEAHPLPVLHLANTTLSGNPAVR

What was measured:
Assay in all cases: log2 fold change, soluble protein after heating vs DMSO (PISA); higher = thermal stabilisation; K562 cells, 10 uM, 30 min; active = over 0.2 and 3.5 SD of the protein, either way, in both replicates (recomputed)
[1] = compound: C1COCCN1CCN2C3=CC=CC=C3N=C2NC(=O)C4=CC(=CC=C4)[N+](=O)[O-] [IRAK-1-4 Inhibitor I]
Summary of the method: (§1)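 Values are thermal stability changes relative to control samples and are taken from duplicates. They are stated as log2 fold changes. Before quantification by TMTpro 16plex LC-MS/MS with equalised channel sums, K562 cells at 2×10^6 cells/mL were treated with 10 μM compound for 30 min, heated in aliquots for 3 min across 48°C-58°C, pooled, extracted in PBS with 0.5% NP-40 at 4°C, and centrifuged at 21,000xg for 90 min to give the soluble supernatant.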

[2] = compound: C=CC(=O)N1CCC[C@@H](n2nc(-c3ccc(Oc4ccccc4)cc3)c3c(N)ncnc32)C1 [ibrutinib]
Summary of the method: as §1

[3] = compound: CC(=O)c1cnc2ccc(-c3cc(Cl)c(O)c(Cl)c3)nc2c1N[C@H]1CC[C@H](CN(C)C)CC1
Summary of the method: as §1

[4] = compound: CC(C)(C)Cn1c(N)nc2ccc(-c3[nH]c(C(C)(C)C)nc3-c3ccc(F)cc3)nc21 [ralimetinib]
Summary of the method: as §1

[5] = compound: CC(C)(O)CC(=O)NCCn1ccc2ncnc(Nc3ccc(Oc4cccc(C(F)(F)F)c4)c(Cl)c3)c21
Summary of the method: as §1

[6] = compound: CC(C)C1=C2N=C(C=C(N2N=C1)NCC3=CC=CC=C3)NCCCCCCN
Summary of the method: as §1

[7] = compound: CC(C)C[C@@H](C=O)NC(=O)[C@H](CC(C)C)NC(=O)[C@H](CC(C)C)NC(=O)OCc1ccccc1
Summary of the method: as §1

[8] = compound: CC(C)N(C[C@H]1O[C@@H](n2cnc3c(N)ncnc32)[C@H](O)[C@@H]1O)[C@H]1C[C@@H](CCc2nc3cc(C(C)(C)C)ccc3[nH]2)C1 [pinometostat]
Summary of the method: as §1

[9] = compound: CC1=C(C(CC(=O)N1)C2=CC=C(C=C2)C(F)(F)F)C(=O)NC3=C(C=C4C(=C3)C=NN4)F
Summary of the method: as §1

[10] = compound: CC1=C(C2=C(C=C1)C(=O)C3=CC=CC=C3N2CCCN)C
Summary of the method: as §1

[11] = compound: CC1=C(C=C(C=C1)NC(=O)C2=CC(=CC=C2)C(C)(C)C#N)NC3=CC4=C(C=C3)N=CN(C4=O)C
Summary of the method: as §1

[12] = compound: CC1=C(C=C(C=C1)NC(=O)C2=CC(=CC=C2)N(C)C)NC(=O)C3=CC=C(C=C3)O
Summary of the method: as §1

[13] = compound: CC1=CC=C(C=C1)SC2=C3C=C(SC3=CN=C2)C(=O)N
Summary of the method: as §1

[14] = compound: CC1=NC(=CC=C1)C2=C(N=C(N2)C(C)(C)C)C3=CC4=NC=CN=C4C=C3
Summary of the method: as §1

[15] = compound: CCCCN(Cc1ccc(C(=O)NO)cc1)C(=O)Nc1ccccc1 [Nexturastat A]
Summary of the method: as §1

[16] = compound: CCCS(=O)(=O)Nc1ccc(F)c(C(=O)c2c[nH]c3ncc(-c4ccc(Cl)cc4)cc23)c1F [vemurafenib]
Summary of the method: as §1

[17] = compound: CCCS(=O)(=O)Nc1ccc(F)c(C(=O)c2c[nH]c3ncc(Cl)cc23)c1F
Summary of the method: as §1

[18] = compound: CCCc1cc(C)[nH]c(=O)c1CNC(=O)c1cc(-c2ccnc(N3CCN(C)CC3)c2)cc2c1cnn2C(C)C
Summary of the method: as §1

[19] = compound: CCN(CC)Cc1ccc2cc(COC(=O)Nc3ccc(C(=O)NO)cc3)ccc2c1 [givinostat]
Summary of the method: as §1

[20] = compound: CCN(CCCOc1ccc2c(Nc3cc(CC(=O)Nc4cccc(F)c4)[nH]n3)ncnc2c1)CCOP(=O)(O)O [barasertib]
Summary of the method: as §1

Measured: log2 fold change

LZIC isoform 2 (UniProt Q8WZA0)
inactive: [1] 0.016 | [2] 0.016 | [3] 0.009 | [4] -0.056 | [5] -0.014 | [6] 0.065 | [7] 0.067 | [8] -0.066 | [9] -0.008 | [10] -0.007 | [11] -0.057 | [12] 0.025 | [13] -0.008 | [14] 0.027 | [15] -0.055 | [16] -0.013 | [17] -0.086 | [18] -0.027 | [19] -0.023 | [20] 0.003

MARS (UniProt P56192)
inactive: [1] -0.016 | [2] 0.005 | [3] 0.033 | [4] 0.088 | [5] 0 | [6] -0.079 | [7] 0.044 | [8] 0.116 | [9] 0.008 | [10] -0.017 | [11] 0.027 | [12] 0 | [13] -0.011 | [14] -0.015 | [15] 0.117 | [16] -0.003 | [17] 0.02 | [18] 0.042 | [19] 0.038 | [20] -0.014

MAN2B1 (UniProt O00754)
inactive: [1] 0.046 | [2] 0 | [3] -0.014 | [4] -0.005 | [5] 0.033 | [6] 0.004 | [7] 0.027 | [8] -0.024 | [9] -0.029 | [10] -0.017 | [11] -0.011 | [12] 0.041 | [13] -0.005 | [14] 0.092 | [15] -0.01 | [16] 0.102 | [17] 0.008 | [18] 0.045 | [19] -0.221 | [20] -0.028

MANBA (UniProt O00462)
inactive: [1] 0.031 | [2] 0.019 | [3] -0.055 | [4] 0.015 | [5] 0.013 | [6] -0.042 | [7] 0.108 | [8] -0.039 | [9] 0.008 | [10] -0.033 | [11] 0.005 | [12] 0.056 | [13] 0.015 | [14] -0.053 | [15] -0.043 | [16] 0.041 | [17] -0.011 | [18] 0.007 | [19] 0.05 | [20] -0.009

MAP7 isoform 7 (UniProt Q14244)
inactive: [1] -0.135 | [2] 0.119 | [3] 0.07 | [4] 0.088 | [5] 0.103 | [6] 0.156 | [7] 0.054 | [8] 0.355 | [9] 0.037 | [10] -0.255 | [11] -0.03 | [12] 0.011 | [13] -0.107 | [14] -0.087 | [15] 0.217 | [16] -0.188 | [17] -0.104 | [18] 0.161 | [19] 0.14 | [20] -0.078

LRSAM1 (UniProt Q6UWE0)
inactive: [1] 0.023 | [2] -0.032 | [3] 0.036 | [4] 0.051 | [5] -0.067 | [6] -0.074 | [7] -0.01 | [8] -0.027 | [9] 0.026 | [10] 0.045 | [11] -0.023 | [12] 0.003 | [13] 0.061 | [14] 0.022 | [15] -0.121 | [16] 0.05 | [17] 0.02 | [18] 0.021 | [19] 0.001 | [20] 0.132

LYZ (UniProt P61626)
inactive: [1] -0.035 | [2] 0.178 | [3] 0.208 | [4] -0.028 | [5] 0.029 | [6] -0.209 | [7] -0.074 | [8] -0.005 | [9] -0.906 | [10] -0.005 | [11] -0.085 | [12] 0.219 | [13] 0.156 | [14] -0.069 | [15] -0.116 | [16] -0.142 | [17] -0.131 | [18] -0.019 | [19] 0.488 | [20] 0.602

LSM14B (UniProt Q9BX40)
inactive: [1] -0.082 | [2] 0.04 | [3] -0.091 | [4] 0.114 | [5] 0.041 | [6] -0.082 | [7] 0.105 | [8] 0.123 | [9] -0.003 | [10] -0.027 | [11] 0.036 | [12] 0 | [13] -0.005 | [14] -0.024 | [15] 0.125 | [16] -0.019 | [17] 0.042 | [18] 0.08 | [19] 0.1 | [20] 0.034

MAN1B1 (UniProt Q9UKM7)
inactive: [1] 0.019 | [2] -0.016 | [3] -0.037 | [4] -0.014 | [5] -0.065 | [6] -0.078 | [7] -0.005 | [8] 0.031 | [9] -0.011 | [10] 0.054 | [11] -0.064 | [12] -0.007 | [13] -0.009 | [14] 0.004 | [15] -0.013 | [16] 0.028 | [17] 0.035 | [18] 0.035 | [19] 0.023 | [20] 0.005

MARCHF6 (UniProt O60337)
inactive: [1] 0.043 | [2] 0.054 | [3] -0.013 | [4] 0.033 | [5] 0.044 | [6] -0.154 | [7] 0.166 | [8] 0.068 | [9] 0.071 | [10] -0.051 | [11] -0.167 | [12] 0.055 | [13] -0.009 | [14] -0.01 | [15] 0.014 | [16] -0.019 | [17] 0.065 | [18] -0.076 | [19] -0.135 | [20] 0.061

MAGED2 (UniProt Q9UNF1)
inactive: [1] -0.084 | [2] 0.065 | [3] 0.04 | [4] 0.077 | [5] -0.129 | [6] 0.126 | [7] 0.213 | [8] 0.18 | [9] 0.208 | [10] 0.08 | [11] -0.186 | [12] 0.05 | [13] 0.016 | [14] -0.049 | [15] 0.305 | [16] 0.025 | [17] -0.012 | [18] 0.243 | [19] 0.405 | [20] 0.049

MAP1S (UniProt Q66K74)
inactive: [1] -0.075 | [2] -0.012 | [3] 0.062 | [4] 0.032 | [5] -0.009 | [6] -0.037 | [7] 0.044 | [8] 0.051 | [9] -0.05 | [10] -0.033 | [11] -0.01 | [12] -0.012 | [13] 0.034 | [14] 0.036 | [15] 0.047 | [16] 0.017 | [17] 0.023 | [18] 0.081 | [19] 0.033 | [20] 0.002

LYAR (UniProt Q9NX58)
inactive: [1] -0.151 | [2] 0.023 | [3] 0.287 | [4] 0.185 | [5] 0.224 | [6] 0.584 | [7] 0.078 | [8] 0.378 | [9] -0.031 | [10] -0.242 | [11] 0.055 | [12] -0.098 | [13] -0.157 | [14] -0.245 | [15] 0.267 | [16] -0.193 | [17] -0.087 | [18] 0.162 | [19] 0.082 | [20] -0.124

LRWD1 (UniProt Q9UFC0)
inactive: [1] -0.148 | [2] 0.059 | [3] -0.09 | [4] 0.057 | [5] -0.374 | [6] -0.089 | [7] -0.001 | [8] 0.044 | [9] 0.022 | [10] 0.052 | [11] 0.112 | [12] -0.11 | [13] 0.066 | [14] 0.189 | [15] 0.03 | [16] 0.112 | [17] 0.223 | [18] 0.123 | [19] 0.201 | [20] 0.095

Reprinted at random: 2 entries already listed.
MAP1S (UniProt Q66K74)
inactive: [1] -0.075 | [2] -0.012 | [3] 0.062 | [4] 0.032 | [5] -0.009 | [6] -0.037 | [7] 0.044 | [8] 0.051 | [9] -0.05 | [10] -0.033 | [11] -0.01 | [12] -0.012 | [13] 0.034 | [14] 0.036 | [15] 0.047 | [16] 0.017 | [17] 0.023 | [18] 0.081 | [19] 0.033 | [20] 0.002

MAGED2 (UniProt Q9UNF1)
inactive: [1] -0.084 | [2] 0.065 | [3] 0.04 | [4] 0.077 | [5] -0.129 | [6] 0.126 | [7] 0.213 | [8] 0.18 | [9] 0.208 | [10] 0.08 | [11] -0.186 | [12] 0.05 | [13] 0.016 | [14] -0.049 | [15] 0.305 | [16] 0.025 | [17] -0.012 | [18] 0.243 | [19] 0.405 | [20] 0.049

Following part

LSM1 (UniProt O15116)
inactive: [1] 0.018 | [2] 0.025 | [3] -0.049 | [4] -0.165 | [5] 0.024 | [6] 0.053 | [7] -0.067 | [8] -0.069 | [9] -0.012 | [10] 0.146 | [11] -0.013 | [12] -0.063 | [13] 0.018 | [14] 0.07 | [15] -0.002 | [16] 0.05 | [17] -0.041 | [18] -0.06 | [19] 0.006 | [20] 0.031

MAN1A2 (UniProt O60476)
inactive: [1] 0.006 | [2] -0.022 | [3] -0.06 | [4] -0.051 | [5] 0 | [6] -0.016 | [7] 0.048 | [8] -0.016 | [9] -0.022 | [10] -0.013 | [11] -0.007 | [12] -0.009 | [13] 0.005 | [14] 0.03 | [15] -0.048 | [16] 0.021 | [17] 0.031 | [18] 0.003 | [19] 0.025 | [20] -0.01
